Reference: patent publication US20170283509A1
Results are given in words; binding and its absence hold for the method and conditions named. For part of these data: Binding seen in cells or lysates may run through a third protein. Some binding calls cover weakened binding; strength is not graded here.

Sequences of proteins named here, by UniProt entry; tags and fusion partners are left off. A change or cut given only in a name is not applied to a line headed by its entry.
UniProt O95994: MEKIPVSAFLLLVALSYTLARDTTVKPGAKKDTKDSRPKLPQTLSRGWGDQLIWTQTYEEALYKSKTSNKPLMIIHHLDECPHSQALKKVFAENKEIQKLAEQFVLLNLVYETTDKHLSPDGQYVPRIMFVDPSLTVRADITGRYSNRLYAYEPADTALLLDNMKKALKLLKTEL

Legend:
[1] = target: T1, Recombinant C4.4A (5428-C4-050, R&D Systems) (Homo sapiens (Human)) (UniProt O95274); test: IP of combined recombinant proteins with anti-AGR2 antibody, western blot for C4.4A (FIG. 8D)
T1 sequence: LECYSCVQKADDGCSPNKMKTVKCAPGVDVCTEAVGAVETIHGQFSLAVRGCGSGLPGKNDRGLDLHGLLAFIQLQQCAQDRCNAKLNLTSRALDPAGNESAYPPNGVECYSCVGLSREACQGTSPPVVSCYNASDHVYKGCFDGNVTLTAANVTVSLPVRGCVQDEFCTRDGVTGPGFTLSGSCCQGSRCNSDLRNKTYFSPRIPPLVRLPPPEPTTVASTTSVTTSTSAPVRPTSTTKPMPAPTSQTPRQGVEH

[2] = target: T1, Recombinant C4.4A (5428-C4-050, R&D Systems) (Homo sapiens (Human)); test: co-immunoprecipitation of purified recombinant proteins (2 ug each) with anti-AGR2 antibody, western blot for C4.4A
[3] = target: T1, Recombinant C4.4A (5428-C4-050, R&D Systems) (Homo sapiens (Human)); test: co-immunoprecipitation of purified recombinant proteins (FIG. 2B)

binding [1]: binds | binding [2]: binds | binding [3]: binds
Substance: human recombinant AGR2 (rAGR2) (ab64013, AbCam) (from UniProt O95994 21-175) (ligand)
